Source: article PMC6786517

Chains of the proteins cited; added tags and fusions are not shown.
UniProt Q8BWT5: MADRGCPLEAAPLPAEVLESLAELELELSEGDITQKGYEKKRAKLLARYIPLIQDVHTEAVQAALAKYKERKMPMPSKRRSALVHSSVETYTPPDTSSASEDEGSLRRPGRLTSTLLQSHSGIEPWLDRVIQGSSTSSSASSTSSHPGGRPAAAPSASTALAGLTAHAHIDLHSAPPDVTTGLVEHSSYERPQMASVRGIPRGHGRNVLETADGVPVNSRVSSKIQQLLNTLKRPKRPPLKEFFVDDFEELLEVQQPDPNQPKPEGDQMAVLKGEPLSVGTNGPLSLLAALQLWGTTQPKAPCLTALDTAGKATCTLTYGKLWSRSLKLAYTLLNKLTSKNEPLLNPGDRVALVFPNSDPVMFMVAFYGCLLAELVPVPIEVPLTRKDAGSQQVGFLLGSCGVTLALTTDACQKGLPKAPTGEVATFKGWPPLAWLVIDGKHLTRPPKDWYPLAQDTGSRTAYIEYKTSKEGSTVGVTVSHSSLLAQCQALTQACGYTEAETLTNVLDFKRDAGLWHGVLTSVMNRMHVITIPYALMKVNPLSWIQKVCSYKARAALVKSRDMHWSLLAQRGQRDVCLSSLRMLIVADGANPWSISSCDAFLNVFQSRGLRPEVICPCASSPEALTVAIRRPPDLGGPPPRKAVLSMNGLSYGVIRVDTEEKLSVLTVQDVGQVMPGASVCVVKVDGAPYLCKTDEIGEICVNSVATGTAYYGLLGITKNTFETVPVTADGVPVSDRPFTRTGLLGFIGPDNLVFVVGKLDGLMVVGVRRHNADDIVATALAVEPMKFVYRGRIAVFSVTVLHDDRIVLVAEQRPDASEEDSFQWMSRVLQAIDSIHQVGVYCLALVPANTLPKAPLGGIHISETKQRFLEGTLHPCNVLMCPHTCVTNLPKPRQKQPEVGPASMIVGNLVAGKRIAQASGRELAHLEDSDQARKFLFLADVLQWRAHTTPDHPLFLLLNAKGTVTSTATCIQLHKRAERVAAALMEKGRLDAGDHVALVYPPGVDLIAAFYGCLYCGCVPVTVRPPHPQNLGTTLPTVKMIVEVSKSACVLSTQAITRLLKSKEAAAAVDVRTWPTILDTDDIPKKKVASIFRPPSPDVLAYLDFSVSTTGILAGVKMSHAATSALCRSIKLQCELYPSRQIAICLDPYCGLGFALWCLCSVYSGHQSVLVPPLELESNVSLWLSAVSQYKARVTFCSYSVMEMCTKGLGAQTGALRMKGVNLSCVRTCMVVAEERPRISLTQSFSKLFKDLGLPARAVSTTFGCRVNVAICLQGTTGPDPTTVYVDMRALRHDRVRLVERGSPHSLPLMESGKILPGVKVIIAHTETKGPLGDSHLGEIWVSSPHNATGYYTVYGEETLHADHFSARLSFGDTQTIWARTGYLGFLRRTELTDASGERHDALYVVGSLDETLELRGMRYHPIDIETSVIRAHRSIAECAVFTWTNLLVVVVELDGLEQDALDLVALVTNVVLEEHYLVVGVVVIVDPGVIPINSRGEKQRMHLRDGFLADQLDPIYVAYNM
UniProt Q14247: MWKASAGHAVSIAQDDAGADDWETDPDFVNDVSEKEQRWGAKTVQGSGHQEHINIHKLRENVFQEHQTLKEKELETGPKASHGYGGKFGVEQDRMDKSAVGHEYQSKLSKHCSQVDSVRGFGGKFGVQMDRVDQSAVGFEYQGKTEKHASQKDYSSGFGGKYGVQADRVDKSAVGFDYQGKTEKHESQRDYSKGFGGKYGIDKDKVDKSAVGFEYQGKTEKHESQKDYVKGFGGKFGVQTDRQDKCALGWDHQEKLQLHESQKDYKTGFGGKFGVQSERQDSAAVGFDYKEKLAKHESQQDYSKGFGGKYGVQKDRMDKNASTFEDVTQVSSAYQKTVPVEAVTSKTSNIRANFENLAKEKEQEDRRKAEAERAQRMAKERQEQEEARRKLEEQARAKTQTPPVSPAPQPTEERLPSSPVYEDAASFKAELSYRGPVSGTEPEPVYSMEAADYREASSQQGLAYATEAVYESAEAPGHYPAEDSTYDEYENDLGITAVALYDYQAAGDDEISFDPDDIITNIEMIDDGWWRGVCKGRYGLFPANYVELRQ
UniProt Q60598: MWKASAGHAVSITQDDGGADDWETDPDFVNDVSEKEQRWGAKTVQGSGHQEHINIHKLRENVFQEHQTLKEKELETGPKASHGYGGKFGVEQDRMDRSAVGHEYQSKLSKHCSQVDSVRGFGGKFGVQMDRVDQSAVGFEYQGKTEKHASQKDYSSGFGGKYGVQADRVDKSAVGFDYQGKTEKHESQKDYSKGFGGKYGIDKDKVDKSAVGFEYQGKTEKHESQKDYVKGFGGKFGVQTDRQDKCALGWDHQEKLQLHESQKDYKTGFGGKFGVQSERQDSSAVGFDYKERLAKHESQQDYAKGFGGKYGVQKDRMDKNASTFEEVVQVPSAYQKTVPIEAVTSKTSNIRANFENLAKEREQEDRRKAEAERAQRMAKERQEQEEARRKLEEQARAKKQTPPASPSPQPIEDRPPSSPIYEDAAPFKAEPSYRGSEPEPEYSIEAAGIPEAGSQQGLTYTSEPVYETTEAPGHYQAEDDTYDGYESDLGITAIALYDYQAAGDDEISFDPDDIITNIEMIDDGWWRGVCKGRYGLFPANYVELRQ

Legend:
[1] = target: FLAG-tagged full-length DIP2A (disconnected-interacting protein homolog 2 A) (UniProt Q8BWT5); experiment: affinity purification with mass spectrometry; FLAG-DIP2A overexpressed in HEK293 cells, purified with anti-FLAG M2 Affinity Gel, lanes of SDS-PAGE subjected to LC-MS/MS
His-tagged DIP2A(1-320) = His-tagged DIP2A(1-320) (UniProt Q8BWT5); experiment: affinity purification with mass spectrometry; His-DIP2A1-320 pull-down from cerebral cortex lysate; the corresponding lane on SDS-PAGE subjected to LC-MS/MS; only the target purified

Substance	binding [1]	binding (His-tagged DIP2A(1-320))
cortactin, endogenous in HEK293 cells (from UniProt Q14247 1-550)	binds	–
endogenous cortactin from murine brain lysate (from UniProt Q60598 1-546)	–	binds

These are yes or no findings as the source states them, for the method shown. In cells and extracts the contact can be indirect. These calls come from enrichment with a bait or labelling near it, and not all partners need be listed.
